In patent publication US20170000133A1, “BENZOXABOROLE FUNGICIDES” (SYNGENTA PARTICIPATIONS AG, priority 2013, published 2017):
Some of these results come from one statement about several compounds together. At least one structure is not confirmed: it was looked up by name or label, or the drawing left a doubt.

Assays:
[1] = test system: Fusarium culmorum; assay type: cell-based; details: 200 ppm
[2] = test system: Plasmopara viticola; assay type: in vivo; details: 200 ppm; grape vine leaf disks, inoculated 1 day after application, assessed 6-8 days after application
[3] = test system: Phytophthora infestans; assay type: in vivo; details: 200 ppm; tomato leaf disks, inoculated 1 day after application, assessed 5-7 days after application

Row | SMILES | disease control (inhibition of growth determined visually) [1] | disease control [2] | disease control [3]
1 | CCOC(=O)c1cc2c(cc1Cl)COB2O [Compound 3] | at least 80% |  | 
2 | O=C(Nc1ccc(Cl)cc1)c1cc2c(cc1F)COB2O [Compound 6] |  | at least 80% | 
3 | O=C(NCc1ccc(Cl)cc1)c1cc2c(cc1F)COB2O [Compound 7] |  | at least 80% | 
4 | O=C(NCc1ccc(Cl)cc1)c1ccc2c(c1)B(O)OC2 [Compound 10] |  | at least 80% | 
5 | COC(=O)c1ccc2c(c1)B(O)OC2 [Compound 16] | at least 80% | at least 80% | at least 80%
6 | COC(=O)c1cc2c(cc1Cl)COB2O [Compound 21] | at least 80% | at least 80% | at least 80%
7 | COC(=O)c1cc2c(cc1F)COB2O [Compound 23] | at least 80% | at least 80% | at least 80%
8 | O=C(Nc1ccc(C(F)(F)F)cc1)c1cc2c(cc1F)COB2O [Compound 26] |  | at least 80% | 
9 | O=C(Nc1ccc(F)cc1F)c1cc2c(cc1F)COB2O [Compound 27] |  |  | at least 80%
10 | CCCOC(=O)c1cc2c(cc1Cl)COB2O [Compound 37] | at least 80% |  | 
11 | CCCOC(=O)c1ccc2c(c1)B(O)OC2 [Compound 39] | at least 80% |  | 
